Values of other authors, collected in patent US9968649B2, “Vasopressin formulations for use in treatment of hypotension” (Par Pharmaceutical, Inc., priority 2015, dated 2018).

Tested on: healthy subjects
Conditions: in vivo; cited from earlier work

CN1CC[C@]23c4c5ccc(O)c4O[C@H]2[C@@H](O)C=C[C@H]3[C@H]1C5 [morphine]
impact on exposure to endogenous vasopressin: do not impact exposure
